Data from patent US9516880B2, “Herbicidal and fungicidal 5-oxy-substituted 3-phenylisoxazoline-5-carboxamides and 5-oxy-substituted 3-phenylisoxazoline-5-thioamides” (BAYER CROPSCIENCE AG, priority 2012, dated 2016).
Some entries share one result that the patent states for a list of compounds.

Tests used:
Assay type in all cases: in vivo
Conditions in all cases: application rate 320 grams per hectare, scored visually after 3 to 4 weeks
Echinochloa crus galli = assay: Pre-emergence herbicidal action against harmful plants
Lolium multiflorum = assay: as above
Stellaria media = assay: as above
Veronica persica = assay: as above
Alopecurus myosuroides = assay: Post-emergence herbicidal action against harmful plants
Polygonum convolvulus = assay: as above

COCC(C)NC(=O)C1(OC)CC(c2cc(Cl)cc(Cl)c2)=NO1 (single isomer, unassigned) [1.20-19 D2]
at least 90%: efficacy against Echinochloa crus galli (Echinochloa crus galli) | efficacy against Lolium multiflorum (Lolium multiflorum) | efficacy against Stellaria media (Stellaria media) | efficacy against Veronica persica (Veronica persica)

COC1(C(=O)NCc2ccc(Cl)nc2)CC(c2cc(F)cc(F)c2)=NO1 (stereo not drawn) [Compound 1.11-110]
at least 90%: efficacy against Echinochloa crus galli (Echinochloa crus galli) | efficacy against Lolium multiflorum (Lolium multiflorum) | efficacy against Stellaria media (Stellaria media) | efficacy against Veronica persica (Veronica persica) | efficacy against Alopecurus myosuroides (Alopecurus myosuroides) | efficacy against Polygonum convolvulus (Polygonum convolvulus)

CCn1cc(CNC(=O)C2(OC)CC(c3cc(F)cc(C(F)(F)F)c3)=NO2)cn1 (stereo not drawn) [Compound 1.18-206]
at least 90%: efficacy against Alopecurus myosuroides (Alopecurus myosuroides) | efficacy against Polygonum convolvulus (Polygonum convolvulus)
